Measured data: PubChem BioAssay AID1508588 (Peter MacCallum Cancer Centre, 2020)

Aim: 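Which gene losses make BRAF-mutant melanoma cells more responsive to vemurafenib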 (primary screen)
System: human WM266.4 melanoma cells (BRAF V600 mutant)
Reagent: siRNA pool against human genes, 40 nM
Duration: 96 h from transfection to read-out
Treatment: vemurafenib 300 nM (about IC25), added 48 h after transfection, for 48 h; comparison arm got DMSO vehicle only
Measurement: 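Cell gain (DAPI nuclei at end minus before drug, mean of two replicates) and medium lactate by absorbance per cell, both as ratio to non-targeting siRNA, also grouped into fold-change classes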
Reading the numbers: cell gain with vemurafenib: higher = more cell gain than with non-targeting siRNA; lactate per cell with vemurafenib: higher = more lactate made per cell
Hit rule: 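a knock-down counts as enhancing when its fold-change classes with vehicle and with vemurafenib, taken together, show a stronger drug effect on cell gain or lactate per cell; exact class pairs not stated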
Meaning of the calls: active = enhances vemurafenib effect; inactive = no enhancement seen
Here is an unselected part of about 18,000 deposited reagents. 790 of all reagents (4.4%) were called active. 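Calls rest on a combination of fold-change classes in drug and vehicle arms, not all shown here.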

target | cell gain with vemurafenib | lactate per cell with vemurafenib | Call
OXA1L | 0.65 | 0.93 | inactive
HS3ST3B1 | 0.7 | 1.06 | inactive
ACP7 | 0.71 | 0.81 | inactive
NUP58 | 0.18 | 1.5 | inactive
KCND2 | 0.67 | 0.59 | inactive
MAGEB3 | 0.82 | 1.02 | inactive
TIMCC | 0.64 | 0.34 | inactive
SLC27A3 | 0.95 | 0.94 | inactive
CHMP1A | 0.66 | 1.56 | inactive
PPP1R1C | 0.74 | 0.4 | inactive
CHML | -0.09 | 1.6 | inactive
DEFB115 | 0.68 | 0.52 | inactive
UTRN | 1.03 | 0.92 | inactive
HAUS6 | 0.5 | 0.8 | inactive
TNPO2 | 0.41 | 0.62 | inactive
TFPT | 0.86 | 0.92 | inactive
SLC20A2 | 1.17 | 0.48 | inactive
TSN | 0.87 | 0.4 | inactive
STK38 | 0.58 | 0.52 | active
LARGE2 | 1.05 | 0.53 | inactive
BFSP1 | 0.43 | 0.86 | inactive
GIT2 | 1.06 | 0.74 | inactive
ECEL1 | 0.68 | 0.96 | inactive
CD151 | 0.28 | 1.77 | inactive
DRD3 | 0.61 | 1 | inactive
GDPD2 | 0.77 | 0.62 | inactive
NEURL1 | 0.8 | 0.52 | inactive
BTBD8 | 0.74 | 0.6 | inactive
KCNJ14 | 0.66 | 2.37 | inactive
TMEM106A | 0 | 0.52 | inactive
DLL3 | 0.23 | 0.44 | active
GLRX2 | 0.61 | 1.23 | inactive
VPS35 | 0.25 | 1.36 | inactive
TOP6BL | 0.42 | 1.6 | inactive
ZBTB1 | 0.49 | 0.62 | inactive
ZNF503 | 0.67 | 1.06 | inactive
PCOTH | 1.02 | 0.76 | inactive
OPN3 | 0.58 | 1.16 | inactive
RSPH14 | 0.6 | 1.36 | inactive
ISM2 | 0.35 | 0.55 | inactive
PBX4 | 0.69 | 0.72 | inactive
FGFBP2 | 0.6 | 1.37 | inactive
CELF1 | 0.9 | 1.27 | inactive
CHST11 | 0.91 | 0.76 | inactive
DDX46 | 0.1 | 1.26 | inactive

9 successive entries already listed, quoted:
target | cell gain with vemurafenib | lactate per cell with vemurafenib | Call
MAGEB3 | 0.82 | 1.02 | inactive
TIMCC | 0.64 | 0.34 | inactive
SLC27A3 | 0.95 | 0.94 | inactive
CHMP1A | 0.66 | 1.56 | inactive
PPP1R1C | 0.74 | 0.4 | inactive
CHML | -0.09 | 1.6 | inactive
DEFB115 | 0.68 | 0.52 | inactive
UTRN | 1.03 | 0.92 | inactive
HAUS6 | 0.5 | 0.8 | inactive

The listing continues:
target | cell gain with vemurafenib | lactate per cell with vemurafenib | Call
EYA4 | 0.64 | 0.89 | inactive
KCNAB2 | 0.43 | 0.67 | inactive
PDE12 | 0.22 | 0.88 | inactive
ADAM11 | 0.72 | 0.96 | inactive
SSH1 | 0.61 | 0.74 | inactive
KRTCAP2 | 0.25 | 0.88 | inactive
DDX18 | 0.4 | 1.24 | inactive
COPS3 | 0.56 | 0.71 | inactive
LMAN1 | 0.56 | 1.5 | inactive
CD2BP2 | 0.43 | 0.68 | inactive
OR6N2 | 0.46 | 0.4 | inactive
RELA | 0.31 | 0.26 | active
NRL | 0.39 | 0.94 | inactive
LDB3 | 0.12 | 1.59 | inactive
ANXA7 | 0.7 | 0.41 | inactive
PPP1R14D | 0.5 | 0.5 | inactive
ACTR2 | 0.45 | 1.04 | inactive
BCL2 | 0.38 | 0.71 | inactive
ZNF781 | 0.53 | 1.4 | inactive
THUMPD2 | 0.54 | 1.09 | inactive
NDUFS7 | 0.59 | 1.95 | inactive
SP4 | 0.28 | 1.92 | inactive
HLA-DPB1 | 0.99 | 0.93 | inactive
COPA | -0.07 | 1.36 | inactive
CCT8 | 0.15 | 2.38 | inactive
SERTM1 | 0.71 | 1.12 | inactive
CYP2W1 | 0.41 | 1.75 | inactive
DLGAP5 | 0.52 | 1.23 | inactive
COX17 | 0.68 | 1.41 | inactive
HAGH | 0.81 | 0.53 | inactive
SLC52A3 | 0.7 | 1.4 | inactive
DYNLT2 | 0.52 | 0.98 | inactive
FCRL3 | 0.63 | 1.02 | inactive
ERLEC1 | 1.15 | 0.45 | inactive
BAMBI | 0.33 | 1.46 | inactive
RPA4 | 0.65 | 1.02 | inactive
NQO1 | 0.45 | 1.72 | inactive
GAS2L2 | 0.47 | 2.01 | inactive
CASQ1 | 0.24 | 2.57 | inactive
